Assay results: PubChem BioAssay AID488859 (Sanford-Burnham Center for Chemical Genomics, 2010)
About 970 (69%) of roughly 1,400 compounds were called active. The set was probably picked from earlier hits. The inconclusive results got no clear call from the source; some entries with a clear call stand among them for comparison. No stated cut-off is given here; in the data, active means inhibition above about 45%; inconclusive means no clear call, values can overlap the other calls; inactive means below that.

Amino acid sequences for entries named in this document (tags omitted). A change or cut given only in a name is not applied to a line headed by its entry.
UniProt P61088: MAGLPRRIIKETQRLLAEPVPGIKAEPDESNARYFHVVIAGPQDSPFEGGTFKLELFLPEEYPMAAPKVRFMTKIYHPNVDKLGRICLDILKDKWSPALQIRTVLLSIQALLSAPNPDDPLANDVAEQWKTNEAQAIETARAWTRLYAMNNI

biological target: Ubiquitin-conjugating enzyme E2 N (Homo sapiens) (UniProt P61088); test: UBC13 polyubiquitination inhibitors, single-point retest, confirmation, biochemical, TR-FRET, single concentration (AID 488859); conditions: at 10 µM, hits give high values

SMILES	inhibition
NC(N)=Nc1nc(-c2ccccc2)c2cc(Cl)ccc2n1	active: 79.9%
COc1ccccc1[C@@H]1C(c2cccc(C)c2)=NN(c2ccccc2)[C@H]1C(=O)N1CCOC1=O	active: 46.4%
CCCCCCCCCCC[N+](C)(C)CC/C=C1/c2ccccc2Sc2ccc(Cl)cc21	active: 118%
NC1=NC[C@H](Cc2ccc(O)cc2)N1CCC12CC3CC(CC(C3)C1)C2	active: 58%
CNC[C@@H](CC1CCCCC1)NC[C@H](CC(C)C)NCCc1cccc(C(F)(F)F)c1	active: 80.2%
O=C(CCc1nnc2ccc(N3CCCC3)nn12)Nc1ccc(F)c(F)c1	inconclusive: 63.4%
Nc1ccc2c(c1)C(=O)Cc1ccccc1S2	inactive: 32.3%
CSc1nccc(Nc2ccccc2)c1C#N	inconclusive: 47.3%
O=C(CCCn1c(=S)[nH]c2ccsc2c1=O)NCCc1ccccc1	inconclusive: 62.9%
O=c1c2cc(N3CCOCC3)ccc2[nH]c(=S)n1Cc1ccccc1Cl	inconclusive: 55.2%
CC(C)(C)c1ccc(-c2nc3c(C#N)c(-c4ccc5c(c4)OCO5)ccn3n2)cc1	inconclusive: 49.6%
COc1ccccc1-c1sc2ccccc2c1-c1ccc(C(C)=O)cc1	inconclusive: 45.2%
O=C(NCCN1CCN(c2ccccc2)CC1)c1ccc2c(c1)[nH]c(=S)n1c3ccccc3nc21	inconclusive: 47%
Nc1nc(Cl)nc2ccc(Br)cc12	inconclusive: 56.1%
Cc1[nH]c(=S)c(C#N)c(-c2ccccc2)c1C(=O)Nc1ccccc1	inconclusive: 59%
O=C1OCCN1C(=O)[C@H]1[C@H](c2ccc(Cl)cc2)C(c2cccc(Cl)c2)=NN1c1ccccc1	inconclusive: 59.4%
Cc1ccc(-c2csc3nc4c5ccccc5c(NCCCN(C)C)nn4c(=O)c23)cc1	active: 100%
O=C(CCNC(=O)Cn1ccc2ccccc2c1=O)NCCN1CCN(c2ccccc2F)CC1	active: 101%
CCOc1ccc(-c2csc(NC(=O)c3cccc(N4C(=O)CCC4=O)c3)n2)cc1	inconclusive: 46.2%
O=C(Nc1cccc(F)c1)c1cc(S(=O)(=O)NCCC2=CCCCC2)ccc1F	inactive: 29.7%
Cn1c(=O)cc(SCC(=O)N2CCN(C3CCCCC3)CC2)c2ccccc21	inconclusive: 78.9%
O=C(Nc1cccnc1)c1sc(Nc2ccccc2)nc1-c1ccccc1	inactive: 11.4%

Shown comma-delimited: 3 of the compounds above.
SMILES,inhibition
Nc1ccc2c(c1)C(=O)Cc1ccccc1S2,inactive: 32.3%
CC(C)(C)c1ccc(-c2nc3c(C#N)c(-c4ccc5c(c4)OCO5)ccn3n2)cc1,inconclusive: 49.6%
O=C1OCCN1C(=O)[C@H]1[C@H](c2ccc(Cl)cc2)C(c2cccc(Cl)c2)=NN1c1ccccc1,inconclusive: 59.4%

Following part

SMILES	inhibition
Cn1c2ccccc2c(=O)c2ccc(NCCc3cccs3)cc21	inconclusive: 71.9%
CCn1c(=O)cc(SCC(=O)N2CCN(C3CCCCC3)CC2)c2ccccc21	inconclusive: 87.7%
OCCN1CCN(CC/C=C2/c3ccccc3Sc3ccc(C(F)(F)F)cc32)CC1	active: 70.9%
COC(=O)c1cc(-c2cccs2)nc2ccccc12	inactive: 18.1%
Cc1ccc(-c2nnc3c(C(F)(F)F)nc4ccccc4n23)cc1	inconclusive: 65.2%
CCSc1nc(-c2ccccc2)c2cc(Cl)ccc2n1	inconclusive: 48.4%
CCOc1ccc(C(C(=O)NCC2CCCO2)N(C(=O)c2snc(C(N)=O)c2N)c2ccccc2F)cc1 (stereo unspecified)	active: 48.1%
CCOC(=O)c1cc(-c2ccncc2)nc2c1c(C)nn2C	inconclusive: 94.5%
Cc1ccc(C)c(OCC(O)CN2CCN(CCN3C(=O)c4cccc5cccc(c45)C3=O)CC2)c1 (stereo unspecified)	active: 101%
CCOC(=O)CSc1nc2ccccc2c(=O)n1NC(=O)c1ccccc1	inactive: 38.6%
Cn1c(=O)cc(SCC(=O)NCCCN2CCN(c3ccc(F)cc3)CC2)c2ccccc21	inconclusive: 88.8%
CSc1nc(N2CCOCC2)c2c(c1C#N)CCCCC2	inconclusive: 56.3%
O=C(Nc1ccccn1)c1cc(-c2ccc(Cl)s2)nc2ccccc12	inconclusive: 59.9%
Cc1ncc(CO)c(/C=N/NC(=S)Nc2ccc(Cl)c(Cl)c2)c1O	inactive: 28.4%
O=C(COc1ccc(Cc2ccccc2)cc1)c1ccc(F)cc1	inactive: 8%
CCN1CCN(Cc2ccc(NC(=O)c3cc(NC(=O)c4cncc(-c5ccc(C#N)cc5)c4)cc(OC)c3)cc2C(F)(F)F)CC1	active: 126%
CCCCOc1ccc(-c2cnc3ccccc3n2)cc1	inconclusive: 61.7%
CCN(Cc1ccccc1)C(=O)c1nn(-c2ccc(OC)cc2)c(=O)c2c1c1ccccc1n2C	inconclusive: 57.6%
COc1cc2sc(-c3ccccc3OC)c(-c3ccc(OCCN4CCCCC4)cc3)c2cc1OC	active: 73.5%
CCc1ccc(OCC(=O)NNC(=O)c2cnccn2)c(Br)c1	inactive: 41.2%
Cc1ccc(CN2CCSc3ccc(C(=O)NC4CCN(Cc5ccccc5)CC4)cc32)cc1	inconclusive: 76%
CCn1c(=O)cc(C(F)(F)F)[nH]c1=S	inconclusive: 49.6%

SMILES	inhibition
Cc1ccc(C(C(=O)NCC2CCCO2)N(C(=O)c2snc(C(N)=O)c2N)c2ccccc2F)o1 (stereo unspecified)	inactive: 30.2%
N#Cc1c(-c2ccc(Cl)cc2)c2c([nH]c1=S)CCCC2	inconclusive: 71.9%
CCN(C(=O)COC(=O)c1cc(-c2ccccc2)nc2c1c(C)nn2-c1ccccc1)C1CCS(=O)(=O)C1 (stereo unspecified)	inconclusive: 46.7%
CCCCN1CCc2c1nc1ccc(Br)cc1c2N	inconclusive: 57.1%
O=c1cc(CO)oc(C(Nc2cccc(C(F)(F)F)c2)c2ccccn2)c1O (stereo unspecified)	active: 88.9%
CC(C)(C)CN1CCNC[C@H]1Cc1cccc2ccccc12	inactive: 30.8%
CNC(=O)COC(=O)/C=C/c1cn(-c2ccccc2)nc1-c1ccc(C)o1	inactive: 44.4%
COc1ccc2nc(SCc3nc(N)nc(Nc4ccccc4)n3)[nH]c2c1	inactive: 37.6%
Cc1cccc(N2CCN(c3ccc4cc(S(=O)(=O)N5CCCCC5)ccc4n3)CC2)c1C	inconclusive: 56.1%
COC(=O)c1c(-c2ccc(OC)cc2)oc2ccc(-c3cc(OC)c(OC)c(OC)c3)cc12	inconclusive: 63.2%
NC(=O)c1c(NC(=O)C(=O)NCCCN2CCOCC2)sc2c1CCCC2	active: 72.9%
O=c1c2sccc2[nH]c(=S)n1-c1ccccc1	inconclusive: 57.6%
O=C(COC(=O)c1cc(Cl)ccc1O)NC(=O)NCc1ccccc1	inconclusive: 50.4%
CCOc1ccc(-c2nc(S(=O)(=O)c3ccccc3)c(NC)o2)cc1	inactive: 33.1%
O=C(COC(=O)c1cc(Br)ccc1O)Nc1cccnc1Cl	inconclusive: 49.5%
Fc1cccc(-n2cc(-c3ccccc3)c3c(=S)nc[nH]c32)c1	inconclusive: 50.9%
COc1ccccc1C(=O)N=c1sc2c(C)ccc(OC)c2n1C	inconclusive: 48.2%
C=CCn1c(NC(=O)c2ccc(C)cc2)nc2ccccc21	inconclusive: 57%
Oc1ccc(C[C@H]2CNCCN2CCCCC2CCCCC2)cc1	inactive: 26.4%
CN1CCN(C2Cc3ccccc3Sc3ccc(Cl)cc32)CC1 (stereo unspecified)	inactive: 25.7%
CC/C(=C(\c1ccc(O)cc1)c1ccc(OCCN(C)C)cc1)c1ccccc1	active: 54.6%
Cn1c(=O)c2c(SCC(=O)N3CCN(c4ccccc4)CC3)nc(C3CC3)nc2n(C)c1=O	inconclusive: 68.8%

2 records drawn at random from the list so far:
SMILES	inhibition
CC/C(=C(\c1ccc(O)cc1)c1ccc(OCCN(C)C)cc1)c1ccccc1	active: 54.6%
CCOc1ccc(-c2nc(S(=O)(=O)c3ccccc3)c(NC)o2)cc1	inactive: 33.1%
